Laboratory results from article PMC10877577 (ACS Chemical Biology, 2024).

Assay: Isothermal titration calorimetry of aMinoC1 binding to minocycline
Conditions: PEAQ-ITC, one set of sites
Description: ITC measurements were performed using the PEAQ-ITC nonautomated (MicroCal) at 25 °C. The antibody sample was dialyzed overnight using 5 L of PBS (20 mM Na3PO4, 150 mM NaCl, pH 7.4). […] The concentration of the anti-minocycline sdAb (as murine IgG2a Fc fusion) was determined using extinction coefficients ε280 nm = 31,065 M^–1 cm^–1.

B1: aMinoC1: anti-minocycline single-domain antibody clone 1 from immunized alpaca, tested as sdAb-Fc (antibody, V domains shown)
VH: QVQLESGGGLVQPGSSLRLSCAASGRTFSSYNIGWFRQAPKEREFVAAISWSGARTYYADSVKGRFTISRDNAKNTVYLQMNSLKPEDTAVYSCAAGRGWGTEAILDYWGQGTQVSSA
- N (sites): 2.17 ±2.0e-2
